Test results published in the supplement of paper PMC10849652.
Some of the results follow.

By UniProt entry, the sequences of proteins in these tests, tags left out. Where a name states a change or a piece, a line headed by the entry shows the natural chain unless it says otherwise.
UniProt P13807: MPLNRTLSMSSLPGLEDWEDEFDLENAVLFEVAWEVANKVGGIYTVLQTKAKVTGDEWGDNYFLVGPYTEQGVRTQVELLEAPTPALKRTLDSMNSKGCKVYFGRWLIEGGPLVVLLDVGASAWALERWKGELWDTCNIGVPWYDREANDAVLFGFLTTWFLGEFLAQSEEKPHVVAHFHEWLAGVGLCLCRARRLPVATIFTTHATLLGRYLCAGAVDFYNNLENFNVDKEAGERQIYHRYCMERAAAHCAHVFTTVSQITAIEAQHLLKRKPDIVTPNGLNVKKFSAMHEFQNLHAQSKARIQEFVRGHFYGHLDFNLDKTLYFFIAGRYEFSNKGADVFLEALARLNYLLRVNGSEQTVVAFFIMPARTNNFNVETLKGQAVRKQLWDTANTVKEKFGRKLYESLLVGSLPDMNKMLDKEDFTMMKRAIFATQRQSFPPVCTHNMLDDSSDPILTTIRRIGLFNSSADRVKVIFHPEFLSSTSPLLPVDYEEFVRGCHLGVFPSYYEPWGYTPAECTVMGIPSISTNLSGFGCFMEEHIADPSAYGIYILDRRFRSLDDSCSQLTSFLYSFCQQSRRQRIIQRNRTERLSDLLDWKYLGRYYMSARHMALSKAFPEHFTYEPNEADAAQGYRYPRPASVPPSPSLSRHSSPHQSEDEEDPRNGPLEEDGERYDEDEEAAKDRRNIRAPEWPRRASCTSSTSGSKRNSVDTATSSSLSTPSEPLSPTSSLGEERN
UniProt Q7Z4Q2: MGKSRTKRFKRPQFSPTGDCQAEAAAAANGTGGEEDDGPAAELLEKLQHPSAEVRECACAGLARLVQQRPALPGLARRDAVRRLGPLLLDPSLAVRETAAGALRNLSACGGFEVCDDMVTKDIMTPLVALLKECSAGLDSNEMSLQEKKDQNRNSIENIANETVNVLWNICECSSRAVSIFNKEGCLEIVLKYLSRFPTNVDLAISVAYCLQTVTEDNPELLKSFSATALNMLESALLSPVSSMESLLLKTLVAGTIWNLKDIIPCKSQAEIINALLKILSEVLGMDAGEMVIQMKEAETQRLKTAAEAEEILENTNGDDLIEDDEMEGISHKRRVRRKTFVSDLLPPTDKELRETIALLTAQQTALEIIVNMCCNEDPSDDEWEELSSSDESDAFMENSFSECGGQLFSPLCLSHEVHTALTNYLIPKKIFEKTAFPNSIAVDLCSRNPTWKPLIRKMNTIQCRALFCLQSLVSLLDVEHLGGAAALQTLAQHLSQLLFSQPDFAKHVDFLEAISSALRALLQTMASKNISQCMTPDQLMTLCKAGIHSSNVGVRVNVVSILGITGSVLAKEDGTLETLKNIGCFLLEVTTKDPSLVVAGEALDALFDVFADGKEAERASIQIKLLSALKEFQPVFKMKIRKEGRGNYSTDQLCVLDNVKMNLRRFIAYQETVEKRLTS
UniProt P36969, whole entry, looked up: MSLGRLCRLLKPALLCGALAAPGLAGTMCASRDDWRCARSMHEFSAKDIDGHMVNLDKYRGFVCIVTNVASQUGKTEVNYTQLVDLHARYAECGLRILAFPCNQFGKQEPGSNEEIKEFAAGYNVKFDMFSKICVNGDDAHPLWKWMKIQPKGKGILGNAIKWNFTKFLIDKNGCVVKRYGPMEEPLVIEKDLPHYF
UniProt P52657, whole entry, looked up: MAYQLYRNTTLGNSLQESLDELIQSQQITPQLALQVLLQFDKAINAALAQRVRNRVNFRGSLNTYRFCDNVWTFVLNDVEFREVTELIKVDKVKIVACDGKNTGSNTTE
UniProt P48637: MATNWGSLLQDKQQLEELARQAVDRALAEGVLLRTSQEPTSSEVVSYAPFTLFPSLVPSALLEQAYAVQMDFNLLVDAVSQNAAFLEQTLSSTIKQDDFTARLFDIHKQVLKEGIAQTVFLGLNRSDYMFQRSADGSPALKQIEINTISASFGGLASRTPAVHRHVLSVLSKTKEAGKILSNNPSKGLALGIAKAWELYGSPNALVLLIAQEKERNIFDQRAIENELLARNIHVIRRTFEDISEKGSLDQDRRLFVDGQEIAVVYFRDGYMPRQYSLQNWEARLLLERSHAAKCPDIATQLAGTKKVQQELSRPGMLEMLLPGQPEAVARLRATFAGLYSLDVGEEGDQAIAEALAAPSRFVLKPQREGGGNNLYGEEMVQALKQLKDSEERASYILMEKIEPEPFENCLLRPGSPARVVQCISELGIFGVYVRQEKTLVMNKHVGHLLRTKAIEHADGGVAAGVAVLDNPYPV
UniProt P46976: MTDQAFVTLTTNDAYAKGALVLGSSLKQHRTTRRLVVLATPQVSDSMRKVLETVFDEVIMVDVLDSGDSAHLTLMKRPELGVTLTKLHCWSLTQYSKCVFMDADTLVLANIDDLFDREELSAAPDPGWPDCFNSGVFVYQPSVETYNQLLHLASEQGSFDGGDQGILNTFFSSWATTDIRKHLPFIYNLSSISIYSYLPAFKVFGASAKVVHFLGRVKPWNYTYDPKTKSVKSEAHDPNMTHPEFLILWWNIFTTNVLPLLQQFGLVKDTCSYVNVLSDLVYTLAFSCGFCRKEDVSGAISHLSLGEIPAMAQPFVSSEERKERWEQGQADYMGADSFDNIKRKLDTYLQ
UniProt P12081: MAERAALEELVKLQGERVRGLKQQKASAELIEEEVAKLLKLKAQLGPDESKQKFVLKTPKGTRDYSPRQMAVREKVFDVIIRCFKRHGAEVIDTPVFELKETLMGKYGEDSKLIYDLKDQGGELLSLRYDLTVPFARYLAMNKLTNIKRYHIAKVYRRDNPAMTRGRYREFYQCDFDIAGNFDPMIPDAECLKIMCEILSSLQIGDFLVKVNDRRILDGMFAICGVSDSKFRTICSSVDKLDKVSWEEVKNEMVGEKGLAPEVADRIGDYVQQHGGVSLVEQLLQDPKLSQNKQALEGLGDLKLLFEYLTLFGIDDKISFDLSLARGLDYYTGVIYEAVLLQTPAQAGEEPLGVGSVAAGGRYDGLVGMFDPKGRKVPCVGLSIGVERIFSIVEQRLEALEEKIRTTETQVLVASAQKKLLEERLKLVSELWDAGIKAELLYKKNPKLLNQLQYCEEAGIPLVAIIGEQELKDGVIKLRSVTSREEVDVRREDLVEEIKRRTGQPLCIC
UniProt P16403, whole entry, looked up: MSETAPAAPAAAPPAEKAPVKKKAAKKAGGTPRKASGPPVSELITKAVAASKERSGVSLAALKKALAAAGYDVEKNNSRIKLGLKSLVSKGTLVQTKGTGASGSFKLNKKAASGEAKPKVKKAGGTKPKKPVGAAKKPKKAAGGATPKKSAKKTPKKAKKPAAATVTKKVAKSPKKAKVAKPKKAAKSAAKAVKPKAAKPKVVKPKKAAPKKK
UniProt Q16774: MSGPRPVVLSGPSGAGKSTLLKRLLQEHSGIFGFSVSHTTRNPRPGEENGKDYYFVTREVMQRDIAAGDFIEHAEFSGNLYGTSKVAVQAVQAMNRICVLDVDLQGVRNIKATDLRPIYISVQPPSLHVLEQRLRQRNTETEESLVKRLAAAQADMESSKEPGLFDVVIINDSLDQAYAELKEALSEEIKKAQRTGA
UniProt P53701: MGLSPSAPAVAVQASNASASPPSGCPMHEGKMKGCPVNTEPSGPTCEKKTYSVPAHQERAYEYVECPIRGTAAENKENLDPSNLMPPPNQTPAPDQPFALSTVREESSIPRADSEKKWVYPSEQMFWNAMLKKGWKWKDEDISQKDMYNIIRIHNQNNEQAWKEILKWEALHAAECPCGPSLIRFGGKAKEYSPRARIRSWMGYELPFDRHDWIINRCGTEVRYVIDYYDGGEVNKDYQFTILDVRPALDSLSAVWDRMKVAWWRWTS
UniProt P02008: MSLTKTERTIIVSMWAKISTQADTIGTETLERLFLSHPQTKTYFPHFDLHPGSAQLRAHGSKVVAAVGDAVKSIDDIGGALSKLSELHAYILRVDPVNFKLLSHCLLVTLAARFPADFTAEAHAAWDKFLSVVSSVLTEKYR
UniProt P13984, whole entry, looked up: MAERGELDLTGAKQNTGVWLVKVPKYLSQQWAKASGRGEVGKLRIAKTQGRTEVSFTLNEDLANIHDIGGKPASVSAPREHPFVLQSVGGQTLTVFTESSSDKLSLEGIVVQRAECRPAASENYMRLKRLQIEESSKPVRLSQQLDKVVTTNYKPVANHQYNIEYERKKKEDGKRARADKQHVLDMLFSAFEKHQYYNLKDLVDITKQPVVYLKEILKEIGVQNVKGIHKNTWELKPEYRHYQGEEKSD
UniProt Q9BX10: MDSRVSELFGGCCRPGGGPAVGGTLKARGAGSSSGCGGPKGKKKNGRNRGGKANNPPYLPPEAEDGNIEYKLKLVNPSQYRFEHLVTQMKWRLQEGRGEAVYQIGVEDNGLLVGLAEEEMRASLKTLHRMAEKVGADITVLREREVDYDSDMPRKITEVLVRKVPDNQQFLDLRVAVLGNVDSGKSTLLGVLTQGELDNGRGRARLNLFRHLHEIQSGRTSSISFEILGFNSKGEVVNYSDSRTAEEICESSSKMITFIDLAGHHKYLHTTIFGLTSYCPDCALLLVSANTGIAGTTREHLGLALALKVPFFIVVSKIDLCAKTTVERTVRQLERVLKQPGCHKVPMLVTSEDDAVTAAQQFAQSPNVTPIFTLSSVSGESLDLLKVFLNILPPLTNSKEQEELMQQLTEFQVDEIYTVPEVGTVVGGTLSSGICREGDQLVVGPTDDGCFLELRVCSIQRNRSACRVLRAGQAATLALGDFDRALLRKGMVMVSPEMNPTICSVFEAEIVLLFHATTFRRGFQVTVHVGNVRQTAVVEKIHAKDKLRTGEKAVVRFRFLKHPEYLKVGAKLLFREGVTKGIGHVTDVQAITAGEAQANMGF
UniProt P52655, whole entry, looked up: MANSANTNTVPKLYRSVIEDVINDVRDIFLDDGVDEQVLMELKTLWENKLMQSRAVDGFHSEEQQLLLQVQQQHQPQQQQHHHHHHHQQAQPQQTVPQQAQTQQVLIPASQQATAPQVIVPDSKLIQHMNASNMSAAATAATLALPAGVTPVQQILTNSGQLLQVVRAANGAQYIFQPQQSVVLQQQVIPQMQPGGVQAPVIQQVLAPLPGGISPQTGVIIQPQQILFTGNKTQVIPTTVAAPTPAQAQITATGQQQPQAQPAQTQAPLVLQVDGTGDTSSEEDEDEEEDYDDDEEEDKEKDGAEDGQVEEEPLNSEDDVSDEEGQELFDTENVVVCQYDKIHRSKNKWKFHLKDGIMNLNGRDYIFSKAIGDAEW

What was measured:
Assay in all cases: log2 fold change, soluble protein after heating vs DMSO (PISA); higher = thermal stabilisation; K562 lysate, 10 uM; active = over 0.2 and 3.5 SD of the protein, either way, in both replicates (recomputed)
lapatinib = compound: CS(=O)(=O)CCNCc1ccc(-c2ccc3ncnc(Nc4ccc(OCc5cccc(F)c5)c(Cl)c4)c3c2)o1 [lapatinib]
Outline: (§1)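 Dounce homogenisation of K562 pellets in PBS pH 7.4 with 1 mM MgCl2 produced a crude extract, used at 1 mg/mL protein. Exposure to 10 μM compound lasted 30 min, and aliquots were then heated for 3 min across 48°C-58°C, pooled and brought to 0.5% NP-40 at 4°C. The supernatant after 21,000xg for 90 min was quantified by TMTpro 16plex LC-MS/MS with channel sums equalised. Duplicate values are given as log-two fold change in thermal stability relative to solvent controls.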

pictilisib = compound: CS(=O)(=O)N1CCN(Cc2cc3nc(-c4cccc5[nH]ncc45)nc(N4CCOCC4)c3s2)CC1 [pictilisib]
Outline: as §1

crizotinib = compound: C[C@@H](Oc1cc(-c2cnn(C3CCNCC3)c2)cnc1N)c1c(Cl)ccc(F)c1Cl [crizotinib]
Outline: as §1

[1] = compound: C[C@H](C1=CC=C(C=C1)C(=O)NC2=C3C=CNC3=NC=C2)N
Outline: as §1

duvelisib = compound: C[C@H](Nc1ncnc2nc[nH]c12)c1cc2cccc(Cl)c2c(=O)n1-c1ccccc1 [duvelisib]
Outline: as §1

gandotinib = compound: Cc1cc(Nc2cc(CN3CCOCC3)c3nc(C)c(Cc4ccc(Cl)cc4F)n3n2)n[nH]1 [gandotinib]
Outline: as §1

tozasertib = compound: Cc1cc(Nc2cc(N3CCN(C)CC3)nc(Sc3ccc(NC(=O)C4CC4)cc3)n2)n[nH]1 [tozasertib]
Outline: as §1

doramapimod = compound: Cc1ccc(-n2nc(C(C)(C)C)cc2NC(=O)Nc2ccc(OCCN3CCOCC3)c3ccccc23)cc1 [doramapimod]
Outline: as §1

bafetinib = compound: Cc1ccc(NC(=O)c2ccc(CN3CC[C@H](N(C)C)C3)c(C(F)(F)F)c2)cc1Nc1nccc(-c2cncnc2)n1 [bafetinib]
Outline: as §1

[2] = compound: Cc1cccc(CC(=O)N2CCc3c2ccc(-c2cn(C)c4ncnc(N)c24)c3F)n1
Outline: as §1

nilotinib = compound: Cc1cn(-c2cc(NC(=O)c3ccc(C)c(Nc4nccc(-c5cccnc5)n4)c3)cc(C(F)(F)F)c2)cn1 [nilotinib]
Outline: as §1

[3] = compound: Cc1nc(Nc2n[nH]c3c2CN(C(=O)N[C@H](CN(C)C)c2ccccc2)C3(C)C)c2sccc2n1
Outline: as §1

dasatinib = compound: Cc1nc(Nc2ncc(C(=O)Nc3c(C)cccc3Cl)s2)cc(N2CCN(CCO)CC2)n1 [dasatinib]
Outline: as §1

[4] = compound: Cc1ncc(-c2ccnc(Nc3ccc(S(C)(=O)=O)cc3)n2)n1C(C)C
Outline: as §1

[5] = compound: Cn1cc(-c2ccc3c(c2)CCN3C(=O)Cc2cccc(C(F)(F)F)c2)c2c(N)ncnc21
Outline: as §1

quisinostat = compound: Cn1cc(CNCC2CCN(c3ncc(C(=O)NO)cn3)CC2)c2ccccc21 [quisinostat]
Outline: as §1

tipifarnib = compound: Cn1cncc1[C@@](N)(c1ccc(Cl)cc1)c1ccc2c(c1)c(-c1cccc(Cl)c1)cc(=O)n2C [tipifarnib]
Outline: as §1

[6] = compound: NC(=O)Nc1cc(-c2cccc(F)c2)sc1C(=O)N[C@H]1CCCNC1
Outline: as §1

[7] = compound: NC(=O)c1cnc(N[C@@H]2CCCC[C@@H]2N)nc1Nc1cccc(-n2nccn2)c1
Outline: as §1

[8] = compound: NC1(c2ccc(-c3nc4ccn5c(=O)[nH]nc5c4cc3-c3ccccc3)cc2)CCC1
Outline: as §1

Measured: log2 fold change

HDLBP, A0A024R4E5
inactive: lapatinib 0.005 | pictilisib -0.017 | crizotinib -0.028 | [1] 0.002 | duvelisib -0.003 | gandotinib -0.03 | tozasertib 0.006 | doramapimod 0.018 | bafetinib -0.049 | [2] 0.013 | nilotinib -0.011 | [3] 0.006 | dasatinib -0.038 | [4] 0.014 | [5] 0.015 | quisinostat -0.076 | tipifarnib 0.001 | [6] 0.018 | [7] -0.002 | [8] -0.022

GTF3C1 (UniProt Q12789)
inactive: lapatinib -0.019 | pictilisib -0.019 | crizotinib -0.097 | [1] -0.098 | duvelisib 0.02 | gandotinib 0.013 | tozasertib 0.021 | doramapimod 0.04 | bafetinib -0.089 | [2] 0.139 | nilotinib 0.012 | [3] -0.008 | dasatinib -0.021 | [4] -0.001 | [5] 0.013 | quisinostat -0.16 | tipifarnib 0.008 | [6] 0.019 | [7] -0.001 | [8] -0.008

GYS1 (UniProt P13807)
inactive: lapatinib -0.046 | pictilisib -0.055 | crizotinib -0.002 | [1] -0.021 | duvelisib 0.007 | gandotinib -0.012 | tozasertib 0.105 | doramapimod -0.06 | bafetinib 0.036 | [2] -0.01 | nilotinib -0.021 | [3] 0.011 | dasatinib 0.055 | [4] 0.005 | [5] 0.064 | quisinostat -0.037 | tipifarnib 0.031 | [6] 0.026 | [7] -0.007 | [8] 0.044

HEATR3 (UniProt Q7Z4Q2)
inactive: lapatinib -0.003 | pictilisib 0 | crizotinib -0.074 | [1] -0.006 | duvelisib -0.005 | gandotinib -0.078 | tozasertib -0.021 | doramapimod 0.027 | bafetinib -0.064 | [2] 0.031 | nilotinib 0.023 | [3] -0.021 | dasatinib -0.042 | [4] -0.031 | [5] 0.062 | quisinostat -0.078 | tipifarnib 0.019 | [6] 0.033 | [7] -0.015 | [8] 0.001

GPX4 (UniProt P36969)
inactive: lapatinib -0.037 | pictilisib -0.03 | crizotinib -0.01 | [1] 0.041 | duvelisib -0.008 | gandotinib -0.065 | tozasertib 0 | doramapimod -0.001 | bafetinib -0.033 | [2] -0.051 | nilotinib -0.011 | [3] -0.001 | dasatinib 0.01 | [4] 0.039 | [5] -0.024 | quisinostat -0.012 | tipifarnib -0.009 | [6] 0.02 | [7] -0.011 | [8] 0.011

GTF2A2 (UniProt P52657)
inactive: lapatinib -0.017 | pictilisib 0.012 | crizotinib 0.039 | [1] -0.047 | duvelisib -0.003 | gandotinib 0.045 | tozasertib -0.023 | doramapimod 0.025 | bafetinib -0.011 | [2] -0.01 | nilotinib -0.023 | [3] 0.08 | dasatinib -0.005 | [4] 0 | [5] -0.016 | quisinostat 0.022 | tipifarnib -0.003 | [6] -0.039 | [7] -0.021 | [8] -0.033

GSS (UniProt P48637)
inactive: lapatinib 0.004 | pictilisib -0.013 | crizotinib 0.019 | [1] -0.015 | duvelisib -0.005 | gandotinib 0.048 | tozasertib -0.006 | doramapimod 0.004 | bafetinib 0.069 | [2] -0.041 | nilotinib 0.001 | [3] -0.003 | dasatinib 0.03 | [4] -0.033 | [5] 0.017 | quisinostat 0.031 | tipifarnib -0.011 | [6] -0.015 | [7] -0.009 | [8] 0.006

GYG1 isoform 2 (UniProt P46976)
inactive: lapatinib -0.036 | pictilisib -0.045 | crizotinib 0.069 | [1] 0.029 | duvelisib 0.074 | gandotinib -0.035 | tozasertib 0.187 | doramapimod 0.024 | bafetinib -0.021 | [2] -0.043 | nilotinib -0.001 | [3] -0.01 | dasatinib 0.044 | [4] 0.02 | [5] -0.006 | quisinostat 0.011 | tipifarnib -0.062 | [6] -0.06 | [7] -0.02 | [8] 0.16

HARS (UniProt P12081)
inactive: lapatinib 0.008 | pictilisib 0.01 | crizotinib -0.009 | [1] 0.028 | duvelisib 0.014 | gandotinib -0.052 | tozasertib 0.006 | doramapimod 0.003 | bafetinib 0.015 | [2] -0.01 | nilotinib 0.031 | [3] 0.003 | dasatinib -0.006 | [4] -0.015 | [5] 0.008 | quisinostat -0.021 | tipifarnib 0.019 | [6] -0.019 | [7] 0.005 | [8] 0.021

H1-2 (UniProt P16403)
inactive: lapatinib -0.028 | pictilisib -0.02 | crizotinib 0.006 | [1] -0.002 | duvelisib 0.039 | gandotinib 0.005 | tozasertib -0.002 | doramapimod -0.081 | bafetinib -0.055 | [2] -0.005 | nilotinib -0.006 | [3] 0.02 | dasatinib -0.027 | [4] -0.002 | [5] -0.119 | quisinostat -0.014 | tipifarnib -0.019 | [6] 0.001 | [7] 0.001 | [8] 0.024

GUK1 isoform 2 (UniProt Q16774)
inactive: lapatinib 0.032 | pictilisib 0.002 | crizotinib -0.098 | [1] -0.161 | duvelisib -0.026 | gandotinib 0.061 | tozasertib -0.037 | doramapimod 0.022 | bafetinib -0.126 | [2] 0.132 | nilotinib -0.058 | [3] 0.038 | dasatinib -0.095 | [4] -0.006 | [5] -0.036 | quisinostat -0.117 | tipifarnib -0.025 | [6] 0.013 | [7] -0.019 | [8] -0.036

HCCS (UniProt P53701)
inactive: lapatinib 0.005 | pictilisib 0.034 | crizotinib 0.009 | [1] -0.054 | duvelisib -0.019 | gandotinib 0.021 | tozasertib -0.034 | doramapimod -0.002 | bafetinib -0.039 | [2] 0.052 | nilotinib 0.021 | [3] 0.005 | dasatinib -0.017 | [4] -0.005 | [5] -0.015 | quisinostat 0.004 | tipifarnib -0.003 | [6] 0.012 | [7] -0.009 | [8] 0.013

HBZ (UniProt P02008)
inactive: lapatinib 0.086 | pictilisib 0.06 | crizotinib 0.009 | [1] 0.1 | duvelisib 0.032 | gandotinib -0.048 | tozasertib 0.028 | doramapimod 0.021 | bafetinib -0.028 | [2] -0.074 | nilotinib 0.071 | [3] -0.019 | dasatinib 0.011 | [4] 0.062 | [5] 0.001 | quisinostat 0.017 | tipifarnib 0.016 | [6] -0.042 | [7] -0.049 | [8] 0.005

GTF2F2 (UniProt P13984)
inactive: lapatinib -0.011 | pictilisib 0.016 | crizotinib 0.002 | [1] -0.053 | duvelisib -0.021 | gandotinib 0.061 | tozasertib 0.002 | doramapimod -0.016 | bafetinib -0.003 | [2] 0.018 | nilotinib -0.014 | [3] -0.024 | dasatinib 0.053 | [4] 0.006 | [5] 0.001 | quisinostat 0.02 | tipifarnib 0.003 | [6] -0.013 | [7] -0.017 | [8] -0.015

GTPBP2 (UniProt Q9BX10)
inactive: lapatinib 0.064 | pictilisib -0.056 | crizotinib -0.052 | [1] 0.021 | duvelisib 0.043 | gandotinib -0.098 | tozasertib -0.048 | doramapimod 0.027 | bafetinib -0.038 | [2] 0.009 | nilotinib 0.016 | [3] -0.009 | dasatinib -0.023 | [4] -0.014 | [5] 0.005 | quisinostat -0.136 | tipifarnib -0.079 | [6] 0.042 | [7] 0.04 | [8] 0.046

Reprinted at random: two records from the list.
GTF3C1 (UniProt Q12789)
inactive: lapatinib -0.019 | pictilisib -0.019 | crizotinib -0.097 | [1] -0.098 | duvelisib 0.02 | gandotinib 0.013 | tozasertib 0.021 | doramapimod 0.04 | bafetinib -0.089 | [2] 0.139 | nilotinib 0.012 | [3] -0.008 | dasatinib -0.021 | [4] -0.001 | [5] 0.013 | quisinostat -0.16 | tipifarnib 0.008 | [6] 0.019 | [7] -0.001 | [8] -0.008

GTPBP2 (UniProt Q9BX10)
inactive: lapatinib 0.064 | pictilisib -0.056 | crizotinib -0.052 | [1] 0.021 | duvelisib 0.043 | gandotinib -0.098 | tozasertib -0.048 | doramapimod 0.027 | bafetinib -0.038 | [2] 0.009 | nilotinib 0.016 | [3] -0.009 | dasatinib -0.023 | [4] -0.014 | [5] 0.005 | quisinostat -0.136 | tipifarnib -0.079 | [6] 0.042 | [7] 0.04 | [8] 0.046

Continuation.

GTF2A1 (UniProt P52655)
active: [1] 0.327
inactive: lapatinib 0.034 | pictilisib 0.011 | crizotinib 0.055 | duvelisib 0.009 | gandotinib -0.141 | tozasertib 0.064 | doramapimod 0.028 | bafetinib 0.026 | [2] -0.111 | nilotinib 0.024 | [3] -0.047 | dasatinib 0.022 | [4] 0.095 | [5] 0.046 | quisinostat -0.039 | tipifarnib 0.021 | [6] -0.04 | [7] 0.007 | [8] -0.012
